Laboratory results: PubChem BioAssay AID1259308 (NCATS, 2017)
Here is a random part of about 59,000 reagents tested. About 1,510 of them (2.6%) were called active. 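Calls use total luciferase alone and ignore viability, so some active siRNAs may act by altering cell number.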 Unmarked entries are inactive. Reagents against one gene are numbered here.

Screen: 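Candidate targets for better recombinant protein yield in mammalian cells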 (primary screen)
Cell system: human HEK293 embryonic kidney cells stably expressing firefly luciferase (HEK-CMV-Luc2-Hygro)
Reagents: single siRNA against human genes, 0.8 pmol siRNA per well
Duration: 72 h
Measurement: 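Reporter luminescence and viable-cell signal on separate replicate plates, given as percent of non-targeting control and median/MAD z-scores, plus per-cell luciferase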
Reading the numbers: total luciferase, z-score and total luciferase, % of control: higher = more reporter protein produced; luciferase per cell, z-score: higher = more reporter output per viable cell; viable cells, % of control: higher = more viable cells
Call rule: 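An siRNA counts as active if its total luciferase robust z-score exceeds 3; genes with two or more such siRNAs out of three were retested with fresh siRNAs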
Meaning of the calls: active = raised luciferase; inactive = no rise

| gene | reagent no. | total luciferase, z-score | total luciferase, % of control | luciferase per cell, z-score | viable cells, % of control |
| --- | --- | --- | --- | --- | --- |
| GPR155 | 1 | 0.111 | 84.1 | -0.193 | 98.9 |
| GPR155 | 2 | -0.175 | 78.4 | -0.563 | 102 |
| GPR155 | 3 | 0.58 | 93.4 | -0.0444 | 106 |
| DCAF5 | 1 | 1.07 | 103 | 0.697 | 95.9 |
| DCAF5 | 2 | -0.193 | 78 | -0.437 | 97.9 |
| DCAF5 | 3 | 1.41 | 110 | 1.71 | 78.3 |
| ARHGAP23 | 1 | 1.25 | 107 | 1.16 | 88.1 |
| ARHGAP23 | 2 | -0.261 | 76.7 | 0.185 | 81.6 |
| ARHGAP23 | 3 | -1.22 | 57.5 | -0.935 | 82.2 |
| MAFB | 1 | 0.361 | 89.1 | -0.118 | 103 |
| MAFB | 2 | -0.0624 | 80.6 | -0.635 | 107 |
| MAFB | 3 | 0.197 | 85.8 | -0.107 | 98.6 |
| HRH1 | 1 | -0.109 | 79.7 | -0.605 | 104 |
| HRH1 | 2 | 1.27 | 107 | 1.73 | 75.8 |
| HRH1 | 3 | -1.46 | 52.9 | -1.83 | 95.7 |
| GRM5P1 | 1 | -0.206 | 77.8 | -0.354 | 95.4 |
| GRM5P1 | 2 | -0.0379 | 81.1 | 0.117 | 87.9 |
| GRM5P1 | 3 | 2.03 | 122 | 1.64 | 88.7 |
| NFXL1 | 1 | -0.957 | 62.9 | -0.946 | 90.1 |
| NFXL1 | 2 | 0.647 | 94.7 | 1.04 | 80.6 |
| NFXL1 | 3 | 0.0527 | 82.9 | -0.553 | 107 |
| CNN3 | 1 | 0.382 | 89.5 | 0.108 | 97.2 |
| CNN3 | 2 | -0.0105 | 81.7 | -0.115 | 94.1 |
| CNN3 | 3 | 0.762 | 97 | 0.524 | 94.5 |
| DNAJC5 | 1 | -0.399 | 73.9 | -0.314 | 89.8 |
| DNAJC5 | 2 | 2.41 | 130 | 1.88 | 88.4 |
| DNAJC5 | 3 | 0.334 | 88.5 | 2.57 | 50.3 |
| DDX31 | 1 | 0.16 | 85.1 | 0.178 | 90.7 |
| DDX31 | 2 | -0.925 | 63.5 | -1.15 | 96 |
| DDX31 | 3 | 0.712 | 96.1 | 0.0862 | 105 |
| HCN1 | 1 | -1.78 | 46.6 | -1.59 | 79 |
| HCN1 | 2 | -0.811 | 65.8 | -0.607 | 86.2 |
| HCN1 | 3 | -0.315 | 75.6 | -0.788 | 104 |
| PDE4A | 1 | 0.215 | 86.2 | 0.549 | 83.3 |
| PDE4A | 2 | -0.148 | 78.9 | 0.141 | 85 |
| PDE4A | 3 | -0.241 | 77.1 | -0.16 | 89.9 |
| LOC150519 (retired record) | 1 | -0.248 | 77 | 0.514 | 75.1 |
| LOC150519 (retired record) | 2 | 0.771 | 97.2 | 0.597 | 92.8 |
| LOC150519 (retired record) | 3 | 0.259 | 87 | -0.958 | 125 |

Laid out differently: results already given.
gene	reagent no.	total luciferase, z-score	total luciferase, % of control	luciferase per cell, z-score	viable cells, % of control
CNN3	2	-0.0105	81.7	-0.115	94.1
CNN3	3	0.762	97	0.524	94.5
